Reference: PMC12670160, “A drug-repurposing screen of FDA- and EMA-approved drugs identifies two NF-κB inhibitors active against eumycetoma” (Journal of Antimicrobial Chemotherapy, 2025)
Structures can show the parent of a compound that is named as a salt. Hit rate of the full screen: of about 5,300 compounds, about 130 (2.5%) showed an effect of 50% or more. The list shows a part of the results.

tested on: M. mycetomatis strain mm55; details: primary screen, metabolic activity vs growth control; 96 h, 2 µM; inhibitor

SMILES	% viability
Cc1cccc(NC(=O)c2ccc(C(F)(F)F)cc2C(=O)O)n1 [ONC0001038, af38469]	84.75%
CCn1c(-c2nonc2N)nc2cnc(Oc3cccc(NC(=O)c4ccc(OCCN5CCOCC5)cc4)c3)cc21 [ONC0002474, gsk269962]	46.2%
C[C@]12CC[C@@H]3c4ccc(O)cc4CC[C@H]3[C@@H]1[C@@H](O)[C@@H](O)[C@@H]2O [ONC0005540, estetrol]	86.71%
NC(=O)NO [ONC0000587, hydroxyurea]	64.11%
Clc1ccccc1C(c1ccccc1)(c1ccccc1)n1ccnc1 [Clotrimazole]	2.944%
CO/N=C1\CN(c2nc3c(cc2F)c(=O)c(C(=O)O)cn3C2CC2)CC1CN (stereo not drawn) [ONC0004036, gemifloxacin mesylate]	71.96%
CON(C)C(=O)[C@H](O)[C@H](Cc1ccccc1)NC(=O)c1cc2cc(Cl)ccc2[nH]1 [ONC0001518, cp316819]	117.2%
O=C(O)CCCCCCCCC(=O)O [ONC0005473, disodium sebacate]	90.67%
CCC(=O)NC[C@@H]1C[C@H]1c1cccc2c1CCO2 [ONC0002690, tasimelteon]	69.8%
Clc1ccc(COC(Cn2ccnc2)c2ccc(Cl)cc2Cl)cc1 (stereo not drawn) [ONC0000666, econazole nitrate]	102.4%
CC(C)c1c2cc(-c3ccnc(N[C@H]4CC[C@H](NC5CCOCC5)CC4)n3)ccc2nn1C [ONC0002761, ly2857785]	125.7%
CC[C@@H](C(=O)O)C1CC[C@H](C)C([C@@H](C)[C@H](O)[C@H](C)C(=O)[C@H](CC)C2O[C@]3(C=C[C@@H](O)[C@]4(CC[C@@](C)(C5CC[C@](O)(CC)[C@H](C)O5)O4)O3)[C@H](C)C[C@@H]2C)O1 (stereo partly drawn) [ONC0004344, salinomycin procoxacin]	144.3%
CN[C@@H]1C(OC2[C@H](O[C@H]3[C@H](O)[C@@H](O)[C@H](NC(=N)N)[C@@H](O)[C@@H]3NC(=N)N)OC(C)[C@]2(O)CO)OC(CO)C(O)C1O (stereo partly drawn) [ONC0000464, dihydrostreptomycin sesquisulfate 5mm10 aq dmso]	68.06%
CCCC(C(=O)OCCN(CC)CC)(c1ccccc1)c1ccccc1 [ONC0004163, proadifen hydrochloride]	65.11%
CCCN1CCC[C@@H]2Cc3n[nH]cc3C[C@H]21 [ONC0002699, quinpirol]	68.38%
O=S(=O)(O)CCSSCCS(=O)(=O)O [ONC0004092, dimesna]	119.9%
C=CC[N@@+]12CC[C@@]34c5ccccc5N5/C=C6/[C@H]7C[C@H]8[C@@]9(CC[N@@+]8(CC=C)C/C7=C/CO)c7ccccc7N(/C=C(/[C@@H](C[C@@H]31)/C(=C\CO)C2)[C@H]54)[C@@H]69 [ONC0002905, alcuronium]	75.88%
Cc1cc(CC(C)CC(C)(C)C)n(O)c(=O)c1 (stereo not drawn) [ONC0002323, piroctone olamine]	131.8%
CC(C)(C)c1ccc(S(=O)(=O)NCc2ccc(C(=O)Nc3cccnc3)cc2)cc1 [ONC0001855, stf31]	80.22%
O=C(O)CNC(=O)C(CS)Cc1ccccc1 (stereo not drawn) [ONC0003501, thiorphan]	71.51%

SMILES	% viability
COC[C@@H](c1ccc(C(F)(F)F)cc1)N1CCN(C2(C)CCN(C(=O)c3c(C)ncnc3C)CC2)C[C@@H]1C [ONC0002026, vicriviroc maleate]	74.17%
NC(C(=O)O)c1cc(O)ccc1Cl (stereo not drawn) [ONC0001508, chpg]	113.3%
Clc1cccc(/C=N/C=N/c2cccc(Cl)c2)c1 [ONC0004453, 33dichlorobenzaldazine]	144.6%
CCCC(CCC)C(=O)O [ONC0005341, valproate sodium]	115.6%
CN(C)CCCC1(c2ccc(F)cc2)OCc2cc(C#N)ccc21 (stereo not drawn) [ONC0003807, citalopram]	64.39%
CN(C)[C@@H](CCOc1cccc2ccccc12)c1ccccc1 [ONC0004885, dapoxetine hydrochloride priligy]	112.5%
Nc1nc2nn[nH]c2c(=O)[nH]1 [ONC0002792, azaguanine8]	265.7%
CC[C@H](Nc1ncnc2[nH]cnc12)c1nc2cccc(F)c2c(=O)n1-c1ccccc1 [ONC0005230, cal101 gs1101]	109.6%
Cc1ccccc1CN1CC2=C(CCN(Cc3ccccc3)C2=O)N2CCN=C12 [ONC0005082, tic10 analogue]	71.17%
O=C(Nc1ccc(F)cc1)N1CCc2ccccc2C1c1ccc(C(F)(F)F)cc1 (stereo not drawn) [ONC0000140, tci2000]	100.7%
Cc1nccn1CCC(C(N)=O)(c1ccccc1)c1ccccc1 [ONC0001199, imidafenacin]	96.37%
CC(C)c1noc(N2CCC(COc3ccc(-c4ccc(S(C)(=O)=O)cc4)nc3)CC2)n1 [ONC0004915, gsk1292263]	109.9%
O=C(NC1CCNCC1)c1n[nH]cc1NC(=O)c1c(Cl)cccc1Cl [ONC0004841, at7519]	120.1%
CCCCCCOc1cc2c(cc1N(C)c1ncc(C(=O)O)cn1)C(C)(C)CCC2(C)C [ONC0000258, pa452]	77.13%
CN[C@@H]1CCc2[nH]c3ccc(C(N)=O)cc3c2C1 [ONC0005506, frovatriptan]	114.4%
O=C(CCCc1ccc(-c2ccccc2F)cc1)Nc1ccc(O)cc1 [ONC0000116, cmpd1]	102.2%
O=C(O)/C=C/c1ccc(-c2ccc(O)c(C34CC5CC(CC(C5)C3)C4)c2)cc1 [ONC0001926, adarotene]	144.7%
COc1ccc(-c2coc3cc(O)cc(O)c3c2=O)cc1 [ONC0004943, biochanin a 4methylgenistein]	91.76%
C[S+]([O-])c1ccc(-c2nc(-c3ccncc3)c(-c3ccc(F)cc3)[nH]2)cc1 (stereo not drawn) [ONC0000881, sb203580]	87.12%
C=C1/C(=C\C=C2/CCC[C@]3(C)[C@@H]([C@H](C)/C=C/[C@H](C)C(C)(C)O)CC[C@@H]23)C[C@@H](O)C[C@@H]1O [ONC0001290, ercalcitriol]	72.21%

Copied from above for reference:
SMILES	% viability
Clc1cccc(/C=N/C=N/c2cccc(Cl)c2)c1 [ONC0004453, 33dichlorobenzaldazine]	144.6%
CCCC(CCC)C(=O)O [ONC0005341, valproate sodium]	115.6%
CN(C)CCCC1(c2ccc(F)cc2)OCc2cc(C#N)ccc21 (stereo not drawn) [ONC0003807, citalopram]	64.39%
CN(C)[C@@H](CCOc1cccc2ccccc12)c1ccccc1 [ONC0004885, dapoxetine hydrochloride priligy]	112.5%
Nc1nc2nn[nH]c2c(=O)[nH]1 [ONC0002792, azaguanine8]	265.7%
CC[C@H](Nc1ncnc2[nH]cnc12)c1nc2cccc(F)c2c(=O)n1-c1ccccc1 [ONC0005230, cal101 gs1101]	109.6%
Cc1ccccc1CN1CC2=C(CCN(Cc3ccccc3)C2=O)N2CCN=C12 [ONC0005082, tic10 analogue]	71.17%
O=C(Nc1ccc(F)cc1)N1CCc2ccccc2C1c1ccc(C(F)(F)F)cc1 (stereo not drawn) [ONC0000140, tci2000]	100.7%
Cc1nccn1CCC(C(N)=O)(c1ccccc1)c1ccccc1 [ONC0001199, imidafenacin]	96.37%
CC(C)c1noc(N2CCC(COc3ccc(-c4ccc(S(C)(=O)=O)cc4)nc3)CC2)n1 [ONC0004915, gsk1292263]	109.9%
O=C(NC1CCNCC1)c1n[nH]cc1NC(=O)c1c(Cl)cccc1Cl [ONC0004841, at7519]	120.1%
CCCCCCOc1cc2c(cc1N(C)c1ncc(C(=O)O)cn1)C(C)(C)CCC2(C)C [ONC0000258, pa452]	77.13%
CN[C@@H]1CCc2[nH]c3ccc(C(N)=O)cc3c2C1 [ONC0005506, frovatriptan]	114.4%
O=C(CCCc1ccc(-c2ccccc2F)cc1)Nc1ccc(O)cc1 [ONC0000116, cmpd1]	102.2%
O=C(O)/C=C/c1ccc(-c2ccc(O)c(C34CC5CC(CC(C5)C3)C4)c2)cc1 [ONC0001926, adarotene]	144.7%
COc1ccc(-c2coc3cc(O)cc(O)c3c2=O)cc1 [ONC0004943, biochanin a 4methylgenistein]	91.76%
C[S+]([O-])c1ccc(-c2nc(-c3ccncc3)c(-c3ccc(F)cc3)[nH]2)cc1 (stereo not drawn) [ONC0000881, sb203580]	87.12%
C=C1/C(=C\C=C2/CCC[C@]3(C)[C@@H]([C@H](C)/C=C/[C@H](C)C(C)(C)O)CC[C@@H]23)C[C@@H](O)C[C@@H]1O [ONC0001290, ercalcitriol]	72.21%

Later entries.

SMILES	% viability
C[C@H](NC(=O)/C(C#N)=C/c1ccc(O)c(O)c1)c1ccccc1 [ONC0001705, tyrphostinag835]	111.6%
COC1=CC(=O)C[C@@H](C)[C@]12Oc1c(Cl)c(OC)cc(OC)c1C2=O [ONC0003303, griseofulvin]	56.87%
CCC(=O)NCC[C@@H]1CCc2ccc3c(c21)CCO3 [ONC0003970, ramelteon]	71.52%
Cc1cn2c(N)c(Cl)cc(C(=O)NCC3CCN(CC(C)C)CC3)c2n1 [ONC0001591, cj033466]	72.45%
CC(C)(C)c1cc(/C=C(\C#N)C(N)=S)cc(C(C)(C)C)c1O [ONC0005258, tyrphostin ag 879 ag 879]	127.6%
COc1cccc(OCCCN)c1-c1cc(Nc2cnc(C#N)cn2)n[nH]1 [ONC0001824, prexasertib dihydrochloride]	106.5%
Fc1ccc(-n2cc(CCCCN3CCC4(CC3)OCc3ccccc34)c3ccccc32)cc1 [ONC0002044, siramesine hydrochloride]	116.1%
c1ccc2c(c1)OCC(C1=NCCN1)O2 (stereo not drawn) [ONC0005424, idazoxan hydrochloride]	108.3%
NC(N)=NCCC[C@H](N)C(=O)NCC(=O)N[C@@H](CC(=O)O)C(=O)N[C@@H](CO)C(=O)O [ONC0002282, argglyaspser]	101.1%
CN(C)CCC(c1ccc(Cl)cc1)c1ccccn1 (stereo not drawn) [ONC0004829, chlorpheniramine maleate]	80.68%
OCC(O)CN1CCN(c2ccccc2)CC1 (stereo not drawn) [ONC0003237, dropropizine]	84.34%
COc1ccccc1N1CCN(CCN2C(=O)CC3(CCCC3)CC2=O)CC1 [ONC0002563, bmy7378]	52.22%
CCN(CC)CCCCC1CCN(CC(=O)N2c3ccccc3C(=O)Nc3cccnc32)CC1 [ONC0003539, aqra741]	108%
CC(C)CCNc1ncccc1C(=O)N1CCN(Cc2ccccc2)CC1 [ONC0001776, nsi189]	105.6%
COc1ccc(COc2cc3oc(=O)c4cc(C(C)O)ccc4c3cc2OC)cc1 (stereo not drawn) [ONC0004999, palomid 529]	90.49%
C=C(C)[C@@H]1CCC(C)=C[C@H]1c1c(OC)cc(C)cc1OC [ONC0002995, o1918]	82.98%
COC1=C(OC)C(=O)C(C/C=C(\C)CC/C=C(\C)CC/C=C(\C)CC/C=C(\C)CC/C=C(\C)CC/C=C(\C)CC/C=C(\C)CC/C=C(\C)CC/C=C(\C)CCC=C(C)C)=C(C)C1=O [ONC0005494, coenzymeq10]	87.43%
Nc1ccc(F)cc1NC(=O)c1ccc(CNC(=O)/C=C/c2cccnc2)cc1 [ONC0001791, chidamide]	119.7%
CCCCC[C@H](O)/C=C/[C@@H]1[C@H]2C/C(=C/CCCC(=O)O)O[C@H]2C[C@H]1O [ONC0005564, prostaglandin i2sodium]	72.27%
COc1ccc2cc1Oc1ccc(cc1)C[C@H]1c3c(cc4c(c3Oc3cc5c(cc3OC)CCN(C)[C@@H]5C2)OCO4)CCN1C [ONC0004186, cepharanthine]	88.07%
